Results reported in US8338429B2, “2-acylaminothiazole derivative or salt thereof” (Astellas Pharma, Inc., priority 2002, dated 2012).
Some entries share one result that the patent states for a list of compounds.

Test system: human c-mpl-Ba/F3 cells
Test: Oral administration test for mice (c-mpl-Ba/F3 proliferation activity of plasma)
Assay type: in vivo
Settings: plasma 2 hours after 10 mg/kg p.o., male ICR mice; final plasma concentration 10%; maximum of each tested compound = 100%
Experimental: To male ICR mice, a tested compound dissolved or suspended in 0.5% methylcellulose aqueous solution was orally administrated in an amount of 100 mg/kg or 10 mg/kg. […] Plasma obtained by centrifugation at 12,000 rpm for 3 minutes was warmed up at 56° C. for 30 minutes, and added to the human c-mpl.Ba/F3 cell proliferation system described in (i) such that the final plasma concentration became 10%, and then cell proliferation activity was measured. The cell proliferation activity (%) of each plasma batch, when maximum cell proliferation activity of each tested compound was set to 100%, was calculated.

| Structure (SMILES) | Cell proliferation activity [%] |
| --- | --- |
| Cc1sc(NC(=O)c2ccc(/C=C(\Cl)C(=O)O)cc2)nc1-c1cccc(C(F)(F)F)c1 [Control 3, reference compound] | < 10 |
| O=C(O)/C(Cl)=C/c1ccc(C(=O)Nc2nc(-c3ccc(Cl)c(Cl)c3)cs2)cc1 [Control 2, reference compound] | < 10 |
